Results deposited as PubChem BioAssay AID743454 (Peter MacCallum Cancer Centre, 2014)
The whole screen tested about 18,000 reagents; shown is a random part of them. 450 of them (2.5%) were called active. 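Single biological run; no consistent viability z cut-off exists, so the class columns, not z-scores, define the calls.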 A number with no mark means an inactive call.

Purpose: 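Knock-downs lowering viability or raising caspase 3/7 activity in vorinostat-treated resistant cells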 (primary screen)
System: human HCT116-VR colon cancer cells, selected for vorinostat resistance
Reagents: siRNA pool against human genes, 40 nM siRNA pool
Duration: vorinostat for 24 h, read-out about 72 h after transfection
Challenge: vorinostat at 2.5 µM final
Measurement: 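Two measures, CellTiter-Fluor viability and luminescent caspase 3/7 activity, each as fold change against same-plate mock wells, mean of duplicates, then screen-wide robust z-score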
Scale: viability robust z-score: higher = more viable cells than screen typical; caspase robust z-score: higher = more caspase 3/7 activity than screen typical
Hit rule: 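a knock-down is a hit when classed RV1 or RV2 for lowered viability, or CA1 or CA2 for caspase activation; those lethal without drug were dropped; hits were retested singly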

Silencing of ARL2BP (ARF like GTPase 2 binding protein) resulted in: viability hit class no change; caspase hit class no change; viability robust z-score -0.03; caspase robust z-score 0.33.
Depletion of OR51A2 (olfactory receptor family 51 subfamily A member 2) gave: viability hit class no change; caspase hit class no change; viability robust z-score -2.04; caspase robust z-score -1.19.
For LTBP1 (latent transforming growth factor beta binding protein 1), the entry reads viability hit class no change; caspase hit class no change; viability robust z-score -0.04; caspase robust z-score -0.63.
After knock-down of MAPK10 (mitogen-activated protein kinase 10) the results were viability hit class no change; caspase hit class no change; viability robust z-score -0.12; caspase robust z-score -0.99.
Depletion of NDP (norrin cystine knot growth factor NDP) resulted in: viability hit class no change; caspase hit class no change; viability robust z-score -3.55; caspase robust z-score -0.28.
For RPL21 (ribosomal protein L21), the values are viability hit class no change; caspase hit class no change; viability robust z-score -5.9; caspase robust z-score 0.
KIF12 (kinesin family member 12) showed viability hit class RV2 (reduced viability) (active); caspase hit class no change; viability robust z-score -3.17; caspase robust z-score 2.91.
After knock-down of WDR47 (WD repeat domain 47) the results were viability hit class no change; caspase hit class no change; viability robust z-score -0.14; caspase robust z-score -0.18.
Depletion of XCR1 (X-C motif chemokine receptor 1) came out at: viability hit class no change; caspase hit class no change; viability robust z-score -2.08; caspase robust z-score 0.32.
MTCH1 gave viability hit class no change; caspase hit class no change; viability robust z-score 0.12; caspase robust z-score -0.42.
Depletion of ABHD16B (abhydrolase domain containing 16B) came out at: viability hit class no change (active); caspase hit class CA1 (caspase activation); viability robust z-score -0.99; caspase robust z-score 5.48.
Against ADPRM (ADP-ribose/CDP-alcohol diphosphatase, manganese dependent), the entry reads viability hit class no change; caspase hit class no change; viability robust z-score -0.13; caspase robust z-score -0.02.
PDE1C (phosphodiesterase 1C) scored viability hit class no change; caspase hit class no change; viability robust z-score 0.57; caspase robust z-score -0.58.
Against HP (haptoglobin) the deposit lists viability hit class no change; caspase hit class no change; viability robust z-score 0.31; caspase robust z-score -0.19.
For SDR42E1 (short chain dehydrogenase/reductase family 42E, member 1), the entry reads viability hit class no change; caspase hit class no change; viability robust z-score 0.73; caspase robust z-score -0.8.
After knock-down of GPC2 (glypican 2), the record shows viability hit class no change; caspase hit class no change; viability robust z-score -1.81; caspase robust z-score -0.62.
AK1 (adenylate kinase 1) gave viability hit class no change; caspase hit class no change; viability robust z-score -0.5; caspase robust z-score 3.53.
With knock-down of CLCNKA (chloride voltage-gated channel Ka) the results were viability hit class no change; caspase hit class no change; viability robust z-score 0.32; caspase robust z-score -0.67.
OR6C76 (olfactory receptor family 6 subfamily C member 76) showed viability hit class no change; caspase hit class no change; viability robust z-score -0.22; caspase robust z-score 1.07.
For SRP19 (signal recognition particle 19) the deposit lists viability hit class no change; caspase hit class no change; viability robust z-score -0.12; caspase robust z-score -0.04.
For FAM117A (family with sequence similarity 117 member A), the values are viability hit class no change; caspase hit class no change; viability robust z-score -1.22; caspase robust z-score -0.4.

Just “viability hit class” (2 entries from above):
MTCH1: no change
ABHD16B (abhydrolase domain containing 16B): no change (active)
